Reference: PubChem BioAssay AID493014 (National Center for Advancing Translational Sciences (NCATS), 2011)
Out of some 340,000 compounds screened, about 170 (0.05%) were called active. The inconclusive results got no clear call from the source; some entries with a clear call stand among them for comparison. Calls come from the whole dose curve; as a rule, active = well fitted inhibition curve with a large enough effect in the signal ratio, with a control signal flat (not every such curve was filed as active); inconclusive = small, poorly fitted or top-dose-only effect, or effect the other way, or a change in a side signal; inactive = flat fitted curve, though single readings scatter; the % refers to the signal ratio. Potencies beside an inconclusive call are fits to weak or partial responses and may not hold up.

Assay: qHTS Assay to Find Inhibitors of Chronic Active B-Cell Receptor Signaling;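 for activity change, negative = inhibition: plate controls were basal doxycycline-induced cells for no effect and cells given 10 µM MG132 for full effect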
Conditions: ABC-DLBCL IkBa-CBG/CBR reporter, luminescence ratio (green luciferase fused to IkBa over red control in TMD8 lymphoma cells), 4 h; activity change, negative = inhibition: at 46.1 µM (top of the series) unless noted
How it was run: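 TMD8 ABC-DLBCL cells carrying doxycycline-inducible green luciferase fused to IkappaBalpha plus unfused red luciferase were exposed to compounds (up to 46 uM) for 4 hrs at 37C. Activity came from the overlap-corrected green/red luminescence ratio.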
Potency is the fitted concentration of half-maximal effect.

| Structure (SMILES) | Potency | activity change, negative = inhibition |
| --- | --- | --- |
| Cc1ccc(C23CC4CC(CC(CN)(C4)C2)C3)cc1 | inconclusive: 15.8 µM [falling, partial curve, poor fit] |  |
| Cc1cc(C)c(N=Cc2c(O)n(-c3nccs3)c(=O)c3ccccc23)c(C)c1 |  | inconclusive: 16.5% |
| O=C(NC1CCN(C(=S)Nc2ccc(Cl)cc2)CC1)c1ccco1 |  | inconclusive: 4.52% |
| CN1CCN(C(=O)c2cc3ccccc3cc2O)CC1 |  | inactive: 0.44% |
| O=[N+]([O-])c1ccc(-c2nc(C(Cl)Cl)c3ccccc3n2)cc1 |  | inconclusive: 0.437% |
| O=C(CN1C(=O)NC2(CCCC2)C1=O)NNC(=O)c1ccccc1F |  | inconclusive: 4.48% |
| COc1ccc2cc(CCNC(=O)c3ccc4c(c3)OCO4)c(=O)[nH]c2c1 | inconclusive: 14.6 µM [falling, partial curve, poor fit] |  |
| CN(CC(=O)Nc1ccc(F)cc1)C(=O)c1cccc(S(=O)(=O)N2CCN(c3ccccc3)CC2)c1 |  | inconclusive: -6.06% |
| CCOC(=O)c1c(-c2ccc(C)o2)csc1NC(=S)NC(=O)N(C)C |  | inconclusive: 5.67% |
| CCOC(=O)N1C(=O)[C@](CC)(c2ccccc2)N1C(=O)OCC |  | inactive: -0.294% |
| Cc1ccc(S(=O)(=O)Nc2ccc(Cl)cc2C(=O)c2ccccc2)cc1 | inconclusive: 14.6 µM [rising, partial curve, poor fit] |  |
| NC(=O)c1ccc(NC(=O)CSc2nc3ccccc3c(=O)n2CCCN2CCOCC2)cc1 |  | inconclusive: -0.639% |
| Cc1ccc(C(=O)Nc2cccc(C(F)(F)F)c2)cc1NC(=O)c1ccno1 | inconclusive: 17.8 µM [falling, partial curve, poor fit] |  |
| CCC(=O)Oc1ccc(C(=O)Nc2ccc3c(c2)OCO3)cc1 | inconclusive: 10 µM [falling, partial curve] |  |
| COC(=O)c1ccc(Nc2ncnc3sccc23)cc1 |  | inconclusive: -0.277% |
| O=c1c2ccccc2c(C=NC2CCS(=O)(=O)C2)c(O)n1-c1ccccc1 (centres undefined) |  | inactive: 1.58% |
| COc1cc2c(cc1OC)n(CC(=O)c1cc(C)ccc1C)c(=O)n1nc(CCn3nc(C)cc3C)nc21 |  | inactive: -0.674% |
| O=C(Nc1sc2c(c1C(=O)O)CCC2)c1ccco1 | inconclusive: 6.51 µM [falling, single point] |  |
| Cc1noc(C)c1COc1ccccc1C(=O)NCCOc1ccccc1 |  | inconclusive: 12.4% |
| Cc1c(CCNC(=O)c2ccc(C(C)(C)C)cc2)sc2nc(-c3ccc(F)cc3)nn12 |  | inactive: -2.53% |
| Cc1sc2ncnc(N3CCN(S(=O)(=O)c4ccc(C(C)(C)C)cc4)CC3)c2c1C |  | inactive: -2.29% |
| CCOC(=O)C(C)(C)N(Cc1ccc(Cl)cc1)S(=O)(=O)c1ccc(Cl)c([N+](=O)[O-])c1 | inconclusive: 20.6 µM [falling, partial curve, poor fit] |  |
| N#Cc1cn(-c2cccc(C(F)(F)F)c2)c(=O)[nH]c1=O |  | inconclusive: 6.54% |
| CCc1ccc(N2C(=O)CN(CC(=O)OC)C2=S)cc1 |  | inconclusive: 2.42% |
| CCOC(=O)C1=C(C)NC(C)=C(C(=O)OCC)C1C(=O)OCC(=O)N(C)C |  | inactive: -0.827% |
| CCCn1c(CCC(=O)O)ccc1-c1cccs1 |  | inactive: 2.27% |
| COc1cc2c(cc1OC)C1O[C@](c3ccsc3)(C2)Oc2cc(C)n(Cc3ccccc3)c(=O)c21 | inconclusive: 1.78 µM [rising, partial curve] |  |

2 entries picked at random from those above:

| Structure (SMILES) | Potency | activity change, negative = inhibition |
| --- | --- | --- |
| Cc1noc(C)c1COc1ccccc1C(=O)NCCOc1ccccc1 |  | inconclusive: 12.4% |
| CN(CC(=O)Nc1ccc(F)cc1)C(=O)c1cccc(S(=O)(=O)N2CCN(c3ccccc3)CC2)c1 |  | inconclusive: -6.06% |

In the list so far, two have two or more sulfur atoms.

| Structure (SMILES) | Potency | activity change, negative = inhibition |
| --- | --- | --- |
| CCOC(=O)c1c(-c2ccc(C)o2)csc1NC(=S)NC(=O)N(C)C |  | inconclusive: 5.67% |
| Cc1sc2ncnc(N3CCN(S(=O)(=O)c4ccc(C(C)(C)C)cc4)CC3)c2c1C |  | inactive: -2.29% |

Following part

| Structure (SMILES) | Potency | activity change, negative = inhibition |
| --- | --- | --- |
| CCc1cccc(NC(=O)Cn2c3[n+](c4ccc(C(F)(F)F)cc42)CCCCC3)c1 |  | inconclusive: 5.15% |
| COc1ccc(NC(=O)/C(=C\c2ccc(F)cc2)NC(=O)c2ccco2)cc1 |  | inconclusive: -0.106% |
| COc1ccccc1-c1cc(C(F)(F)F)nc(N2CCCCC2)n1 |  | inconclusive: 12.4% |
| COc1cc(C(C)=O)ccc1OCC(O)CN1CCN(S(=O)(=O)c2ccccc2)CC1 (centres undefined) |  | inconclusive: 0.52% |
| CC1=NC(C(F)(F)F)(C(F)(F)F)C2=C(CC(C)(C)CC2=O)N1Cc1ccco1 |  | inconclusive: 17.2% |
| CNc1ccc(C(=O)OCC(=O)Nc2ccnn2C(C)C)cc1[N+](=O)[O-] |  | inconclusive: 0.667% |
| Cc1ccc2nc(-c3ccc(NC(=O)CSCC(=O)O)cc3)sc2c1 |  | inconclusive: 10.8% |
| O=c1[nH]n(Cc2ccccc2)c(=O)c2ccccc12 |  | inconclusive: -6.55% |
| CC(=O)NC(c1cccs1)c1cc([N+](=O)[O-])c2cccnc2c1O (centres undefined) |  | inactive: 0.271% |
| O=C(O)C1CCC(N2C(=O)c3cccc([N+](=O)[O-])c3C2=O)CC1 (centres undefined) |  | inactive: 0.0156% |
| CN1C(=S)SC(N(O)C(=O)Nc2ccccc2)C1(C)C (centres undefined) |  | inactive: -1.7% |
| Cc1ccc(N2C(=O)CSCC2=O)cc1 |  | inconclusive: 2.89% |
| Cc1cc(C)n(-c2ccc(C(=O)Nc3ccccn3)cc2)n1 |  | inconclusive: -8.99% |
| Cc1nnc(NC(=O)c2ccc3nccnc3c2)s1 | inconclusive: 18.4 µM [falling, partial curve] |  |
| O=C(c1cccs1)N1CCC(N2CCN(c3ccccc3)CC2)CC1 |  | inactive: 2.37% |
| CCOc1ccc(CC(=NCCc2ccccc2)C2=C(O)CC(C)(C)CC2=O)cc1OCC |  | inconclusive: -0.17% |
| O=C(Cn1cnc2ccccc2c1=O)Nc1nc2ccccc2s1 |  | inactive: -1.59% |
| CCn1c(-c2ccc(C)cc2)n[nH]c1=S |  | inactive: -2.69% |
| CC(=O)Nc1ccc(S(=O)(=O)N(C)c2ccc(OCCOc3ccccc3F)cc2)cc1 |  | inconclusive: -0.704% |
| Cc1cccc(NS(=O)(=O)c2ccc(C)c(C(=O)NCC(c3ccccc3)N(C)C)c2)c1 (centres undefined) |  | inconclusive: -0.231% |
| COc1ccc(CCNC(=O)c2cc(C)oc2C)cc1OC | inconclusive: 12.6 µM [falling, partial curve, poor fit] |  |
| Cc1ccccc1C(=O)N1CCN(c2ccc(NC(=S)NC(=O)c3cccs3)cc2)CC1 |  | inconclusive: -5.43% |
| Nc1ncn([C@@H]2O[C@H](CO)[C@@H](O)[C@H]2O)c(=O)n1 |  | inconclusive: 2.08% |
| O=c1oc2ccccc2cc1-c1nc(-c2ccccc2)no1 | inconclusive: 11.2 µM [falling, partial curve] |  |
| CCN1C(=O)[C@@H]2[C@@H](c3ccc(-c4ccc(C(C)=O)cc4)c(OC)c3)N3CCCC[C@@]3(C(=O)OC)[C@@H]2C1=O |  | inactive: -0.419% |
| N#CC(c1ccccc1)c1ccc(C(=O)c2ccc(F)cc2)cc1 (centres undefined) |  | inconclusive: 9.9% |
| CC[n+]1c(/C=C2\Sc3ccccc3N2C)ccc2cccc(C)c21 |  | inconclusive: 10.8% |

| Structure (SMILES) | Potency | activity change, negative = inhibition |
| --- | --- | --- |
| CCCNC(C)C(=O)Nc1ccccc1C (centres undefined) |  | inactive: 9.9% |
| CN(C)CCCNc1ccc(-c2n[nH]c(=O)c3ccccc23)cc1[N+](=O)[O-] | inconclusive: 35.5 µM [falling, partial curve, poor fit] |  |
| CCC(=O)Nc1ccc(Br)c(Cl)c1 |  | inconclusive: 7.13% |
| COc1ccc(C(C(=O)NC2CCCC2)N(C(=O)c2ccoc2C)c2ccc(C)cc2)cc1 (centres undefined) |  | inconclusive: -10.1% |
| CCC(Sc1ncnc2sc(C)c(C)c12)C(=O)OC (centres undefined) |  | inconclusive: 2.15% |
| Cc1nnc2c3ccccc3c(-c3ccc(O)cc3)nn12 | inconclusive: 4.11 µM [falling, single point] |  |
| NCCc1c(-c2ccccc2)n(-c2ccccc2)c2ccccc12 | inconclusive: 35.5 µM [falling, single point] |  |
| CSc1cccc(NC(=O)CSc2ncccc2C(=O)Oc2cccc([N+](=O)[O-])c2)c1 |  | inconclusive: 3.19% |
| O=C(CNC(=O)c1ccco1)NCC(=O)OCc1ccc(C(=O)Oc2ccc(Cl)cc2)cc1 | inconclusive: 2.91 µM [rising, full curve] |  |
| CCN(CC)CCCNc1nc(-c2ccccc2)nc2ccccc12 |  | inactive: 2.56% |
| CCn1c(=O)c(CCC(=O)N2CCN(c3ccccn3)CC2)c(C)c2c(C)nn(-c3cccc(C)c3)c21 |  | inactive: 4.27% |
| CCOc1ccccc1N(CC(=O)NCC1CCCO1)C(=O)CCC(=O)Nc1ccccn1 (centres undefined) |  | inactive: 9.39% |
| CCOc1ccc(-c2[nH]ncc2-c2ccc(Cl)cc2)c(O)c1 |  | inactive: -8.63% |
| COc1ccc(C/C(C)=N\NC(=O)c2cn(C)c3ccccc23)cc1OC | inconclusive: 35.5 µM [falling, single point] |  |
| O=C(NCCc1ccccc1)c1ccc(Cl)c([N+](=O)[O-])c1 | inconclusive: 35.5 µM [falling, single point] |  |
| CCN1CCN(C(=O)C2c3cc(OC)c(OC)cc3C(=O)N3CCc4ccccc4C23)CC1 (centres undefined) | inconclusive: 5.01 µM [falling, single point] |  |
| CC1(c2ccc(OC(F)F)cc2)NC(=O)N(CC(=O)Nc2cccc(S(N)(=O)=O)c2)C1=O (centres undefined) |  | inconclusive: -0.289% |
| Cc1ccccc1NC(=O)C1CC(=O)N(c2ccc3c4c(cccc24)CC3)C1 (centres undefined) |  | inconclusive: -19.6% |
| Cc1ccc(S(=O)(=O)Nc2ccc3c(c2)OCCO3)c(C)c1NS(C)(=O)=O |  | inactive: -1.09% |
| O=C(NNC(=S)NC(=O)c1ccccc1)c1ccc([N+](=O)[O-])cc1 | inconclusive: 11.2 µM [falling, partial curve] |  |
| O=C(COc1ccc(S(=O)(=O)NCc2ccccc2)cc1)NCc1cccnc1 |  | inactive: 4.21% |
| Clc1cc(Br)ccc1OCCCn1ccnc1 |  | inactive: 4.14% |
| CCC(C)N(C(=O)COc1ccccc1C(=O)NCc1ccccc1)C1CCS(=O)(=O)C1 (centres undefined) |  | inconclusive: 0.132% |
| CC(C)(C)N(Cc1ccccc1)C(=O)c1ccc(Br)o1 | inconclusive: 7.08 µM [rising, partial curve, poor fit] |  |
| Cc1cc(NS(=O)(=O)c2ccc(Nc3nc(-c4ccc(C)c(C)c4)cs3)cc2)no1 | inconclusive: 29.1 µM [rising, single point] |  |
